Reference: US20140175018A1
Results are given in words; binding and its absence hold for the method and conditions named. Some binding calls cover weakened binding; strength is not graded here.

Chains of the proteins cited; added tags and fusions are not shown. Residues count along the entry.
UniProt P41597: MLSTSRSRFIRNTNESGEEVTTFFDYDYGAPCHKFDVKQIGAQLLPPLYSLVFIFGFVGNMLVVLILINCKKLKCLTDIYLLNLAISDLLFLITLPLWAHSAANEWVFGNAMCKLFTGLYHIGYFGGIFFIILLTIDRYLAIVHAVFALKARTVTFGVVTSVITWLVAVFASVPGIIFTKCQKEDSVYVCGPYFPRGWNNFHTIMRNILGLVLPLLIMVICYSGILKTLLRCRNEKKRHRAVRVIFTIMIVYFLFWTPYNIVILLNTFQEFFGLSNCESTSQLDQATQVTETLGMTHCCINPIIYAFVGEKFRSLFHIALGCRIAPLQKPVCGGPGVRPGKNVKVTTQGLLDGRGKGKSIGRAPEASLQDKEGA
UniProt P13500, residues 24-99: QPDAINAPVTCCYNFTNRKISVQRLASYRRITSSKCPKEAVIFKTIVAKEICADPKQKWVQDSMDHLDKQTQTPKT

Target: chemokine (C-C motif) receptor 2 (CCR2) on blood cells (human) (UniProt P41597)
Assay: flow cytometry; MCP-1 binding compared with anti-CCR2 staining of monocytes

- binding: binds
Substance: biotinylated and Alexa647 Fluor labeled MCP-1 (Almac Sciences) (from UniProt P13500 24-99) (ligand)
